Test results reported in PubChem BioAssay AID504444 (National Center for Advancing Translational Sciences (NCATS), 2011).
Out of some 360,000 compounds screened, about 7,500 (2.1%) were called active. Inconclusive results, whose numbers are uncertain, are shown with a selection of clear calls. The call rests on the fitted dose curve; in most records, active means well fitted inhibition curve with a large enough effect; inconclusive means small, poorly fitted or top-dose-only effect, or effect the other way; inactive means flat fitted curve, though single readings scatter. Potencies beside an inconclusive call are fits to weak or partial responses and may not hold up.

Assay: Nrf2 qHTS screen for inhibitors; further: nearly all actives have a fitted effect of over 60% in size
Conditions: A549 ARE-Fluc reporter, luciferase luminescence, 18-24 h; activity change, negative = inhibition: at 46 µM (top of the series)
Method in brief: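 Concentration-response testing used A549 ARE_Fluc cells at 5000 cells/well. Following an 18-24 h compound incubation, viability was read by fluorescence (Ex 405/Em 525) and luciferase output by luminescence.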
On the % scale 0 is the no-effect control and ±100 the full control effect; potency means the concentration at half of the fitted maximal effect.

**Q.** With `O=C(CCS(=O)(=O)c1ccccc1)Nc1ncc([N+](=O)[O-])s1` as the compound, how does the “activity change, negative = inhibition” value read?
**A.** Its value is inactive: 23.3%.

**Q.** For `CCOc1ccc2nc(N3CCCC(C(=O)NC4CCCC4)C3)sc2c1` (stereo unspecified), which Potency is on record?
**A.** Its Potency is inconclusive: 32.6 µM [falling, single point].

**Q.** For `O=c1c(-c2ccc(O)cc2)coc2cc(OC3OC(CO)C(O)C(O)C3O)ccc12` (stereo unspecified), which “activity change, negative = inhibition” value is on record?
**A.** Its value is inactive: 8.07%.

**Q.** With `CC(C)NC(=O)N(C)C[C@H]1Oc2c(cccc2N(C)C)C(=O)N([C@H](C)CO)C[C@@H]1C` as the compound, how does the Potency read?
**A.** Its Potency is inconclusive: 9.2 µM [activator, partial curve, poor fit].

**Q.** With `CCCCCOC(=O)C1=C(C)Nc2nnnn2C1c1ccccc1Cl` (stereo unspecified) as the compound, how does the Potency read?
**A.** Its Potency is inconclusive: 2.59 µM [falling, partial curve].

**Q.** For `Cc1cccc(Nc2ncc3c(n2)CC(C)CC3=O)c1` (stereo unspecified), which Potency is on record?
**A.** Its Potency is inconclusive: 9.2 µM [activator, partial curve].

**Q.** With `O=C(COCc1cc(-c2ccc3c(c2)OCO3)on1)NCc1ccccc1Cl` as the compound, how does the Potency read?
**A.** The Potency was inconclusive: 29.1 µM [falling, single point].

**Q.** With `COc1ccc2[nH]c(=O)c(CN(Cc3ccc4c(c3)OCO4)C(C)=O)cc2c1` as the compound, how does the “activity change, negative = inhibition” value read?
**A.** Its value is inactive: -3.44%.

**Q.** Which Potency does the source give for `Cc1c(NC(=O)c2ccc(N(C)S(C)(=O)=O)cc2)c(=O)n(-c2ccccc2)n1C` here?
**A.** The Potency was inconclusive: 5.8 µM [activator, partial curve, poor fit].

**Q.** With `CN(C)c1cccc(N(C)C)c1CNC(=O)NC(=O)c1c(F)cccc1F` as the compound, how does the Potency read?
**A.** The Potency was inconclusive: 23.1 µM [falling, single point].

**Q.** With `O=C(NCCOc1ccccc1)c1cncc(Br)c1` as the compound, how does the Potency read?
**A.** Its Potency is inconclusive: 1.64 µM [activator, full curve, poor fit].

**Q.** With `COc1ccc(S(=O)(=O)c2c(O)c3ccc(C(=O)Nc4cccc(F)c4)cc3[nH]c2=O)cc1` as the compound, how does the Potency read?
**A.** Its Potency is inconclusive: 0.206 µM [falling, full curve, poor fit].

**Q.** For `Cc1ccc(OCC(=O)Nc2ccc(O)c(-c3nc4ccccc4o3)c2)cc1`, which Potency is on record?
**A.** The Potency was inconclusive: 8.2 µM [falling, partial curve, poor fit].

**Q.** For `Cc1noc(C)c1S(=O)(=O)N(CC(=O)NCc1ccccc1Cl)c1ccc(C(C)C)cc1`, which Potency is on record?
**A.** Its Potency is inconclusive: 32.6 µM [falling, single point].

**Q.** For `COc1cc(SC#N)ccc1N=Cc1c(C)[nH]n(-c2ccc(C)cc2)c1=O`, which Potency is on record?
**A.** The Potency was inconclusive: 23.1 µM [falling, single point].

**Q.** With `O=C(Nc1ccc(F)cc1F)c1c2c(nc3ccccc13)C(=O)N(C1CCCCC1)C2` as the compound, how does the Potency read?
**A.** The Potency was inconclusive: 2.06 µM [activator, partial curve].

**Q.** Which Potency does the source give for `COc1ccc(/C=N/Nc2ncc(C(F)(F)F)cc2Cl)c(OC)c1OC` here?
**A.** The Potency was inconclusive: 18.4 µM [falling, single point].

**Q.** With `CC(C)(C)c1csc(NC2=NS(=O)(=O)c3ccccc32)n1` as the compound, how does the Potency read?
**A.** Its Potency is inconclusive: 2.06 µM [activator, full curve].

**Q.** For `CCN1CCN(C(=O)/C=C/c2ccc(C(C)C)cc2)CC1`, which Potency is on record?
**A.** The Potency was inconclusive: 16.4 µM [activator, single point].

**Q.** For `Cc1cccc(NC(=O)c2cccs2)n1`, which Potency is on record?
**A.** Its Potency is inconclusive: 7.31 µM [activator, partial curve].

**Q.** With `O=S(=O)(Nc1cc(Cl)ccc1N1CCCCC1)c1cccs1` as the compound, how does the Potency read?
**A.** The Potency was inconclusive: 16.4 µM [falling, partial curve, poor fit].

**Q.** For `CCc1ccc(NC(=O)c2noc3c2CCc2ccccc2-3)cc1`, which Potency is on record?
**A.** Its Potency is inconclusive: 4.11 µM [activator, full curve, poor fit].

**Q.** Which “activity change, negative = inhibition” value does the source give for `COc1ccccc1-c1ccnc2[nH]n(-c3ccccc3)c(=O)c12` here?
**A.** Its value is inactive: -1.14%.

**Q.** With `NS(=O)(=O)c1ccc(N/N=C2/CCCCC2C2CCCCC2)c([N+](=O)[O-])c1` (stereo unspecified) as the compound, how does the Potency read?
**A.** Its Potency is active: 20.6 µM.

**Q.** Which Potency does the source give for `NC(=O)C1CC(=O)N(c2ccc(OCC(=O)Nc3ccccc3F)cc2)C1` (stereo unspecified) here?
**A.** The Potency was inconclusive: 9.2 µM [activator, partial curve].

**Q.** For `CCc1cccc(C)c1NC(=O)Cn1c(=O)cc(C(F)(F)F)c2c(C)nn(C)c21`, which Potency is on record?
**A.** Its Potency is inconclusive: 1.46 µM [activator, full curve].

**Q.** Which “activity change, negative = inhibition” value does the source give for `Cc1cccc(N2CCN(c3nc4ccccc4c(=O)n3-c3ccc(Cl)cc3)CC2)c1C` here?
**A.** The value was inactive: -5.17%.

**Q.** For `Cc1[nH]c2ccccc2c1/C=N/NC(=O)c1cc(-c2ccccc2)n[nH]1`, which Potency is on record?
**A.** Its Potency is inconclusive: 18.4 µM [falling, partial curve].

**Q.** Which Potency does the source give for `Cc1ccc(Nc2ncnc3nc[nH]c23)cc1` here?
**A.** Its Potency is inconclusive: 20.6 µM [activator, partial curve, poor fit].

**Q.** For `O=C(Nc1ccccc1NC(=O)C1CCCO1)c1ccco1` (stereo unspecified), which Potency is on record?
**A.** The Potency was inconclusive: 25.9 µM [activator, partial curve, poor fit].

**Q.** With `O=C(Nc1ccc(N2CCN(C(=O)c3ccc(Cl)cc3)CC2)cc1)c1ccc(Br)o1` as the compound, how does the Potency read?
**A.** Its Potency is inconclusive: 29.1 µM [falling, single point].

**Q.** For `Cn1cccc1/C=C1\CCc2ccccc2C1=O`, which Potency is on record?
**A.** Its Potency is inconclusive: 29.1 µM [activator, single point].

**Q.** With `CCc1[nH]c(=O)c(C#N)c2c1CSC(C)(C)C2` as the compound, how does the “activity change, negative = inhibition” value read?
**A.** The value was inactive: 5.39%.

**Q.** With `CCOC(=O)N1CCN(C(=O)c2ccc(S(=O)(=O)Nc3ccc(C)cc3)cc2)CC1` as the compound, how does the Potency read?
**A.** The Potency was active: 10.3 µM.

**Q.** For `CCn1ncc([C@@H]2C[C@H]3CN(Cc4cccc(Cl)c4)C(=O)[C@]34CCCN24)c1C`, which “activity change, negative = inhibition” value is on record?
**A.** The value was inactive: 0.644%.

**Q.** With `COc1ccc(NC(=O)C(=O)NCC2CCCN2S(=O)(=O)c2ccc(C)cc2)cc1` (stereo unspecified) as the compound, how does the Potency read?
**A.** Its Potency is inconclusive: 1.3 µM [activator, full curve, poor fit].

**Q.** For `Cc1ccc(SCc2ccc(C(=O)N3CCCCC3)cc2)cc1`, which Potency is on record?
**A.** The Potency was inconclusive: 29.1 µM [falling, single point].

**Q.** Which Potency does the source give for `CC1CN(c2nc3ccccc3cc2-c2ccccc2)CC(C)O1` (stereo unspecified) here?
**A.** Its Potency is inconclusive: 23.1 µM [activator, partial curve, poor fit].

**Q.** Which Potency does the source give for `c1ccc2c(c1)ncn2CCCOc1ccc2c(c1)CCC2` here?
**A.** The Potency was inconclusive: 29.1 µM [falling, single point].

**Q.** For `COc1ccc(C(C)=O)cc1COC(=O)c1ccc(N)c([N+](=O)[O-])c1`, which Potency is on record?
**A.** Its Potency is inconclusive: 29.1 µM [falling, single point].

**Q.** For `O=C(NC(=S)NC1CCCC1)c1ccccc1`, which Potency is on record?
**A.** The Potency was inconclusive: 18.4 µM [activator, partial curve].
